These results are taken from patent US6017399A, “Method for controlling and removing solid deposits from a surface of a component of a steam generating system” (priority 1998, dated 2000).

Read-outs that look alike come from different tables or passages of the source.

For data set [1] the following is noted: words.
The conditions of data set [2]: for aluminum anion concentration / aluminum cation concentration / aluminum total concentration: Day 22.
The conditions of data set [3]: during the demonstration of dimethylamine.

As to `CNC` [Dimethylamine], the “silica, boiler drum sample” value in data set [1] (FIG. 8) is “prompt reduction of electronegative silica”. Also, in data set [1] (FIG. 9), the “soluble calcium, boiler drum sample” value is on record as “dramatically reduced”. Further, the “sodium and potassium elution, boiler drum sample” value in data set [1] (FIGS. 10 and 11) is on record as “eluted by dimethylamine such that the soluble fraction was increased”. For the same compound, the “aluminum transport, feedwater and steam generator blowdown” value in data set [2] (after dimethylamine treatment, words) is given as “reduction of aluminum below detection limits”. Moreover, in data set [2] (feedwater), the aluminum anion concentration was 1.0 parts per billion, the aluminum cation concentration is reported as 0.49 parts per billion and the aluminum total concentration is on record as 1.49 parts per billion. In data set [2] (steam generator blowdown), the aluminum anion concentration came to 1.44 parts per billion, the aluminum cation concentration amounted to 0.92 parts per billion and the aluminum total concentration stood at 2.36 parts per billion. In data set [3], the “condensate polisher run time” value was “extended from thirty to sixty days”.
